PubChem BioAssay AID1159584, Peter MacCallum Cancer Centre | 2016
Here is one part, drawn at random, of about 18,000 reagents tested. Not stated in the record: the amount of reagent, the time to read-out.

- Screen: 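Knock-downs that harm CDH1-null cells more than parental MCF10A cells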 (primary screen)
- Cells: human MCF10A breast epithelial cells, parental and CDH1-null
- Knock-down reagent: siRNA against human genes
- Read-out: 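Cell viability by CellTiter-Glo ATP luminescence, each line scaled to the mean of mock wells across plates, then CDH1-null over parental ratio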
- Scale: CDH1-null / parental viability ratio: higher = CDH1-null cells survive relatively better than parental; CDH1-null viability vs mock: higher = more viable CDH1-null cells; parental viability vs mock: higher = more viable parental cells

| target | CDH1-null / parental viability ratio | CDH1-null viability vs mock (fraction of mock) | parental viability vs mock (fraction of mock) |
| --- | --- | --- | --- |
| SSTR1 (GeneID 6751) | 0.65 | 0.64 | 0.98 |
| RANGRF (GeneID 29098) | 1.33 | 0.84 | 0.63 |
| MAPT (GeneID 4137) | 0.81 | 0.68 | 0.84 |
| C2CD4B (GeneID 388125) | 0.79 | 0.52 | 0.66 |
| KRT34 (GeneID 3885) | 1.07 | 0.98 | 0.92 |
| FLII (GeneID 2314) | 0.87 | 0.62 | 0.71 |
| ARMC3 (GeneID 219681) | 1.07 | 0.97 | 0.91 |
| KRTAP10-4 (GeneID 386672) | 1.14 | 0.79 | 0.69 |
| ZNF512 (GeneID 84450) | 1.1 | 0.68 | 0.62 |
| SMR3B (GeneID 10879) | 1.21 | 0.7 | 0.58 |
| MTBP (GeneID 27085) | 1.15 | 1 | 0.87 |
| USP47 (GeneID 55031) | 1.04 | 0.83 | 0.8 |
| ZNF385B (GeneID 151126) | 0.7 | 0.47 | 0.67 |
| CHP1 (GeneID 11261) | 1.25 | 0.86 | 0.69 |
| DLGAP4 (GeneID 22839) | 0.47 | 0.32 | 0.68 |
| SLC7A11 (GeneID 23657) | 0.91 | 0.73 | 0.8 |
| CNBD2 (GeneID 140894) | 0.97 | 0.76 | 0.78 |
| OTOP1 (GeneID 133060) | 1.07 | 0.79 | 0.74 |
| BLTP2 (GeneID 9703) | 1.12 | 0.57 | 0.51 |
| JADE1 (GeneID 79960) | 1 | 0.96 | 0.96 |
| TPK1 (GeneID 27010) | 1.02 | 0.82 | 0.8 |
| ARHGAP6 (GeneID 395) | 0.99 | 0.77 | 0.78 |
| VN1R10P (GeneID 387316) | 0.83 | 0.76 | 0.92 |
| ZNF664 (GeneID 144348) | 0.99 | 0.93 | 0.94 |
| TIMM13 (GeneID 26517) | 1.48 | 0.74 | 0.5 |
| PRUNE2 (GeneID 158471) | 0.95 | 0.7 | 0.74 |
| DIABLO (GeneID 56616) | 0.91 | 0.98 | 1.08 |
| NEFH (GeneID 4744) | 0.94 | 0.77 | 0.82 |
| GPR143 (GeneID 4935) | 1.34 | 0.9 | 0.67 |
| NTAQ1 (GeneID 55093) | 0.91 | 0.72 | 0.79 |
| NPY5R (GeneID 4889) | 0.72 | 0.68 | 0.94 |
| EIF4E2 (GeneID 9470) | 0.67 | 0.42 | 0.63 |
| FLT1 (GeneID 2321) | 0.98 | 0.86 | 0.88 |
| SLC16A11 (GeneID 162515) | 1.17 | 0.76 | 0.65 |
| PHYHIP (GeneID 9796) | 0.68 | 0.53 | 0.78 |
| NSF (GeneID 4905) | 0.79 | 0.68 | 0.86 |
| CTDSPL (GeneID 10217) | 1.02 | 0.82 | 0.8 |
| STK36 (GeneID 27148) | 1.32 | 1.08 | 0.82 |
| DHFR (GeneID 1719) | 1.21 | 0.75 | 0.62 |
| QKI (GeneID 9444) | 0.94 | 0.73 | 0.78 |
| FGFR3 (GeneID 2261) | 0.68 | 0.5 | 0.73 |
| ITGA7 (GeneID 3679) | 0.86 | 0.85 | 0.99 |
| AR (GeneID 367) | 1.08 | 0.95 | 0.88 |
| PTPN18 (GeneID 26469) | 1.14 | 0.74 | 0.65 |
| SFXN2 (GeneID 118980) | 1.02 | 0.61 | 0.6 |
| CCR7 (GeneID 1236) | 1.4 | 1.08 | 0.77 |
| TRIT1 (GeneID 54802) | 1.05 | 0.91 | 0.87 |
| GRIK1 (GeneID 2897) | 1.36 | 1.1 | 0.81 |
| APOC1 (GeneID 341) | 0.96 | 0.88 | 0.92 |
| UBQLN1 (GeneID 29979) | 1.01 | 0.92 | 0.91 |
| LY86 (GeneID 9450) | 1.09 | 0.96 | 0.88 |
| RPL8 (GeneID 6132) | 1.5 | 0.45 | 0.3 |
| SBNO1 (GeneID 55206) | 1.19 | 0.56 | 0.47 |
| TET2 (GeneID 54790) | 1.17 | 1.05 | 0.9 |
| OR52B4 (GeneID 143496) | 0.9 | 0.78 | 0.87 |
| ANKFN1 (GeneID 162282) | 0.87 | 0.83 | 0.95 |
| SLC6A18 (GeneID 348932) | 1.05 | 0.66 | 0.63 |
| INKA1 (GeneID 389119) | 0.8 | 0.69 | 0.86 |
| RPL5 (GeneID 6125) | 1.45 | 0.48 | 0.33 |
| GTPBP3 (GeneID 84705) | 1.01 | 0.74 | 0.73 |
| ZCWPW1 (GeneID 55063) | 0.65 | 0.55 | 0.84 |
| KDM6B (GeneID 23135) | 0.91 | 0.4 | 0.44 |
| LUC7L3 (GeneID 51747) | 1.02 | 0.58 | 0.57 |
| GRIN3A (GeneID 116443) | 1.27 | 0.9 | 0.71 |
| MORN4 (GeneID 118812) | 0.74 | 0.37 | 0.5 |
| LAMA5 (GeneID 3911) | 0.99 | 1.05 | 1.06 |
| ZNF112 (GeneID 7771) | 0.86 | 0.38 | 0.44 |
| DRD4 (GeneID 1815) | 0.92 | 0.82 | 0.89 |
